Assay results taken from patent US5874086A (Syntex (U.S.A,), Inc., priority 1994, dated 1999).

Assay: general procedure: Boc solid-phase peptide synthesis; 4-methylbenzhydrylamine resin; DCC/HOBt
[1] = whole synthesis, scale 0.5 mmol

Row | Substance | final purity (method not given) (late stage modification step) [%] | crude mass [1] [mgs] | final purity (method not given) [1] [%] | isolated mass [1] [mgs]
1 | AVSEHQLLHDKGKSIQDLRRRELLEKLLEKLHTXZ-NH2 | >98 |  |  | 
2 | PEPTIDE1{A.V.S.E.H.Q.L.L.H.D.K.G.K.S.I.Q.D.L.R.R.R.E.L.L.E.K.L.L.E.K.L.H.T.A.[am]}$$$$V2.0 |  | 900 | >98 | 130

HELM strings list residues between dots; [ac] is acetyl, [am] amide, other brackets name non-standard units.
